Literature values as cited in US20130032547A1, “STABILIZATION AND DISINFECTION OF WASTES USING HIGH ENERGY E-BEAM AND CHEMICAL OXIDANTS” (priority 2011, published 2013).

Settings: Kurucz et al., 1995, cited from earlier work

ClC=CCl [1,2 dichloroethene]
% Removal (E-beam dose 8 kGy): 60%

ClC(Cl)(Cl)Cl [Carbon tetrachloride]
% Removal (E-beam dose 0.8 kGy): >99%

ClC(Cl)Cl [Chloroform]
% Removal (E-beam dose 6 kGy): 99%

C=C(Cl)Cl [1,1 dichloroethene]
% Removal (E-beam dose 8 kGy): >99%

ClC(Cl)=C(Cl)Cl [Tetrachlorethylene (PCE)]
% Removal (E-beam dose 5 kGy): >99%

Clc1ccccc1 [Cholorbenzene]
% Removal (E-beam dose 6.5 kGy): 97%

CCc1ccccc1 [Ethylbenzene]
% Removal (E-beam dose 6.5 kGy): 92%

ClC=C(Cl)Cl [Trichloroethylene (TCE)]
% Removal (E-beam dose 5 kGy): >99%

BrC(Br)Br [Bromoform]
% Removal (E-beam dose 0.8 kGy): >99%

CC(Cl)(Cl)Cl [1,1,1 trichlooethane]
% Removal (E-beam dose 6.5 kGy): 89%

Cc1ccccc1 [Toluene]
% Removal (E-beam dose 6.5 kGy): 97%

ClC1=C(Cl)[C@]2(Cl)[C@@H]3[C@@H]4C[C@@H]([C@H]5O[C@@H]45)[C@@H]3[C@@]1(Cl)C2(Cl)Cl [Dieldrin]
% Removal (E-beam dose 8 kGy): >99%

Like-named read-outs stand apart in the source and are kept apart here.
